According to patent publication US20250064988A1, “MRI-AGENT LOADED PLATELET COMPOSITIONS AND METHODS OF PREPARING AND USING THE SAME” (Cellphire, Inc., priority 2022, published 2025):

Test system: platelets
Experiment: Example 10 flow cytometry MFI in the FITC channel
Assay type: cell-based, human
Settings: 50 μM loading

## NHS-Fluorescein
  FITC fluorescence, cryopreserved platelets versus FDPDs: lower in cryopreserved platelets than in FDPDs
Unloaded product subtracted as background
  mean fluorescence intensity (MFI) in the FITC channel: strong fluorescence
